Assay results reported in patent publication CN113651889A.
No constants are given. Whether binding was seen depends on the method and setting. Some results given as binding are weak or reduced against the parent protein; the word gives no strength. One block for each binder: values may come before it.

Protein sequences, listed by entry. Tags and fused reporters are not part of them. Residues count along the entry.
UniProt P29317, residues 24-976: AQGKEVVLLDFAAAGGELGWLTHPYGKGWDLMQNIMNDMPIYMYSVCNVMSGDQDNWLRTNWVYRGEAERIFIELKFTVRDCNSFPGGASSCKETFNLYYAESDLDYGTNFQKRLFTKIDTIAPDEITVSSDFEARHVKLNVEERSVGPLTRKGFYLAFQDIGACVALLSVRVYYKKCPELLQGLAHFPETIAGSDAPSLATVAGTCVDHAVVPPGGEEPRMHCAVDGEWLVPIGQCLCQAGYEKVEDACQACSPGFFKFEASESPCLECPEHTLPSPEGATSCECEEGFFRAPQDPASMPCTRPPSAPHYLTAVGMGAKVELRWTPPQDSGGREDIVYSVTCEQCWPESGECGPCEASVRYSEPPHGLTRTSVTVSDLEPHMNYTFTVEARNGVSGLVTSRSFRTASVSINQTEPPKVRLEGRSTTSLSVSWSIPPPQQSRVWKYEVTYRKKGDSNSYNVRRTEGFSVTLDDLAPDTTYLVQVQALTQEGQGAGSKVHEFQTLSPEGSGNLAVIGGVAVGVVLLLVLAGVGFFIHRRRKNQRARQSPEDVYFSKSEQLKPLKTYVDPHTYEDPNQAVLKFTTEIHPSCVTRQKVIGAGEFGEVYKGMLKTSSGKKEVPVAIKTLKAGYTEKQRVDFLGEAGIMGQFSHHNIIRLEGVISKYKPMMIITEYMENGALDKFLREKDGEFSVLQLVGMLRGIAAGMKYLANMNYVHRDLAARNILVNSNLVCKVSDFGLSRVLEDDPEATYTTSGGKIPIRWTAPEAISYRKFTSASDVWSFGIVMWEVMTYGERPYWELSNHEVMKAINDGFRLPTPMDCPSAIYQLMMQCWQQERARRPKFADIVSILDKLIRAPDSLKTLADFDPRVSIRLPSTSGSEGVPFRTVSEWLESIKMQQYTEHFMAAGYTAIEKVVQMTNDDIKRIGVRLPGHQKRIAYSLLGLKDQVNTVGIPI

Biological target: EphA2 receptor on tumour cells (PC-3, HepG2, A549) and on lung adenocarcinoma tissue (human) (UniProt P29317)
Experiment: phage cell ELISA on PC-3, HepG2 and A549 cells

binding: binds
B1: scFv77 (scFv)
scFv: QVQLVQSGAEVKKPGASVKVSCRASGYRFTGAYIHWVRQAPGQGLEWMGWINPDNGDTNYAQKFQGRVSLTGDTSISTTYMEMKSLTFGDTAVYYCARSRAADYWGQGTLVTVSSGGGGSGGGGSGGGGSGGGGSQPVLTQSPSVSVSPGHRVTITCSGDNLGDKYVAWYQQKLGHSPVLVIFQDTKRPSGVPERFSGSTSENTATLTISGIQVLDEADYYCQAWDRSTAIFGGGTKVTVL

binding: binds
B2: scFv14 (scFv)
scFv: QVQLQQWGAGLLKPSETLSLTCAVYGGSFSGYYWSWIRQPPGKGLEWIGEINHSGSTNYNPSLKSRVTISVDTSKNQFSLKLSSVTAADTAVYYCARVLRWMGWFDPWGQGTLVTVSSGSASAPTGGGGSGGGGSGGGGSGGGGSEIVLTQSPLSLPVTPGEPASISCRSSESLLHSNGHNFLDWYLQKPGQSPRLLIYSASNRASGVPDRFSGSGSGTDFTLKISRVEAEDVGVYYCMQGLQGLTFGGGTKVEIK
